Source: PubChem BioAssay AID2685 (National Center for Advancing Translational Sciences (NCATS), 2010)
About 2,100 (0.66%) of roughly 320,000 compounds were called active. The inconclusive results got no clear call from the source; some entries with a clear call stand among them for comparison. The call rests on the fitted dose curve; in most records, active means well fitted inhibition curve with a large enough effect in the signal ratio, with a control signal flat (not every such curve was filed as active); inconclusive means small, poorly fitted or top-dose-only effect, or effect the other way, or a change in a side signal; inactive means flat fitted curve, though single readings scatter; the % refers to the signal ratio. Where the call is inconclusive, the potency comes from a doubtful curve fit.

Experiment: qHTS Assay for Lipid Storage Modulators in Drosophila S3 Cells
Conditions: BODIPY lipid droplet fluorescence, 18-24 h, cells fed with added oleic acid; lipid storage change, negative = inhibition: at 46.1 µM (top of the series) unless noted
Outline: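 Laser-scanning cytometry quantifies lipid droplet accumulation (500–530 nm total intensity; droplet/cell object ratio) in oleic acid-fed (400 uM added) Drosophila S3 cells treated with a concentration series. 20 uM Triacsin C defined 100% inhibition.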
On the % scale 0 is the no-effect control and ±100 the full control effect; potency means the concentration at half of the fitted maximal effect.

Lipid storage change, negative = inhibition, inconclusive:
Cc1nn(CC(=O)NC(C)C(C)C)c(C)c1S(=O)(=O)N1CCCCC1 (centres undefined), CCOC(=O)C1=C(C)NC(=O)NC1c1ccsc1 (centres undefined) -18.2%, Cn1nnnc1SCC(=O)NCC(=O)c1ccccc1 6.23%, Cc1ccc(NC(=O)c2ccccn2)cc1S(=O)(=O)N1CCOCC1 8.62%, CC1CCc2c(sc3nc(CN4CCN(S(=O)(=O)c5ccccc5[N+](=O)[O-])CC4)[nH]c(=O)c23)C1 (centres undefined) -24.8%, N#Cc1c(-c2ccccc2)nc(SCc2ccc([N+](=O)[O-])cc2)[nH]c1=O 9.72%, COc1ccc(OC)c(N2C(=O)CC(C(C)c3ccccc3)C2=O)c1 (centres undefined) 39.8%, CCN(CC)CCNC(=O)CS(=O)Cc1nc(-c2ccccc2Cl)oc1C (centres undefined) 1.94%, CC(NC(=O)COc1ccc(N(C)S(=O)(=O)c2ccccc2)cc1)c1ccccc1 (centres undefined) 41.1%, CC(OC(=O)COc1ccc(Nc2ccccc2)cc1)C(=O)N(C)c1ccccc1 (centres undefined) -27.1%, CC1CN(c2nc(-c3ccc(Br)cc3)nnc2-c2ccccc2)CC(C)N1 (centres undefined) -3.4%, COc1cccc(/C(O)=C2\C(=O)C(=O)N(c3ccccn3)C2c2ccccc2OC)c1 (centres undefined) 40.5%, CCC(C)NC(=O)c1cn(CCOC)c(=O)c2c1c1ccccc1n2C (centres undefined) 9.4%, O=C(Nc1cccc(O)c1)C1CC(c2c(F)cccc2Cl)=NO1 (centres undefined) 32.6%, O=C(c1cncc(Br)c1)N1CCN(S(=O)(=O)c2ccccc2)CC1 89.8%, O=C(CSc1nnc(-c2ccccc2)o1)Nn1cnnc1 -6.78%, CCCCCc1cc(=O)oc2c(C(CCN3CCN(c4ccccc4)CC3)c3ccc4c(c3)OCO4)c(OC)cc(OC)c12 (centres undefined) 1.69%, O=C1CN(c2nc(-c3cccnc3)nc3scc(-c4ccccc4)c23)CCN1 18.2%, COc1ccc(-n2c(N3CCN(C)CC3)nc3sc4c(c3c2=O)CCCCC4)cc1 17.4%, CC1(C)NC(=O)N(CCOc2cccc(Cl)c2Cl)C1=O 40.9%, CN(C)S(=O)(=O)c1cccc(NC(=S)N/N=C/C(c2ccccc2)c2ccccc2)c1 10.9%, O=C(/C=C/Nc1ccc(F)cc1)c1ccc(Br)cc1 8.82%, CCOC(=O)c1cnc(SCc2nc(N)nc(Nc3ccc(F)cc3)n2)nc1N -2.39%, CCOC(=O)c1csc(NC(=O)CN2CCN(C)CC2)n1 -118%, CC(C)(C)CC(=O)NC(=S)NCCc1ccccc1 13.6%, O=C(c1cccc(Oc2ccc([N+](=O)[O-])cc2Cl)c1)N1CCOCC1 3.07%, COc1ccc(C2NC(=O)C(=O)/C2=C(\O)c2ccc(Cl)cc2)cc1OC (centres undefined) 21.6%, O=c1c2cccnc2[nH]c(=S)n1CCC1=CCCCC1 18.9%, O=C(COc1ccccc1)N=C1SC2CS(=O)(=O)CC2N1c1ccc(F)cc1F (centres undefined) -0.255%, COc1ccc(CC(O)CC2c3c(cc4c(c3OC)OCO4)CCN2C)cc1 (centres undefined) 6.81%, O=C(Nc1ccc(F)cc1)Nc1cc(OCC(F)(F)F)cc(OCC(F)(F)F)c1 -100%, Cc1ccc(NC(=O)NNC(=O)CN2C(=O)COc3ccccc32)cc1 -14.7%, CCOc1ccc(S(=O)(=O)NCc2cccs2)cc1 -132%, COCCn1c(SCC(=O)NC2CC2)nnc1-c1ccco1 68.2%, O=C(Nc1sc2c(c1C(=O)O)CCCC2)c1ccc(Cl)cc1 59.5%, Cc1cc(C)c(S(=O)(=O)C(C)C)c(=O)[nH]1 9.92%, CCOC(=O)c1ccc(NC(=O)N2CCc3ccccc3C2)cc1 -35.8%, CC(C)CN(C(=O)c1cccc(Cl)c1)c1c(N)n(CC(C)C)c(=O)[nH]c1=O 91.2%, CC(C)[C@H](NC(N)=O)C(=O)Nc1ccc(Oc2ccccc2)cc1 15.4%, Cc1nnc(NC(=O)CSCc2cc(=O)c3ccccc3[nH]2)s1 15.4%, COc1cc(CCN2C(=O)N[C@@H](c3cccc(C(F)(F)F)c3)C(C(C)=O)=C2C)cc(OC)c1OC 17.9%, CCN(CC)Cc1ccccc1Sc1ccccc1 -17%, Cc1cc(NC(=O)Cc2ccccc2)no1 3.64%, COc1ccc(N2CCN(C(=O)CCc3c[nH]c4ccccc34)CC2)cc1 25.8%, C=C(C)CSc1nnc(-c2ccc(C)cc2)n1N 13.5%, Cc1cc(C)cc(OCC(=O)OCC(=O)Nc2cc(S(=O)(=O)N3CCOCC3)ccc2C)c1 23.6%, CC(C)c1ccc(NC(=O)CSc2nc3ccsc3c(=O)n2Cc2ccc(C(=O)O)cc2)cc1 -45.3%

Lipid storage change, negative = inhibition, inactive:
CCOc1ccc2nc(CN3CCN(Cc4ccsc4)C(CCO)C3)ccc2c1 (centres undefined) -13.8%, O=C(O)CC(C(=O)Nc1ccc(Cl)cc1Cl)C1CCCO1 (centres undefined) 9.88%, CC(=O)c1ccc(OC(C)C)c(CN2CCCCC2)c1 -11.4%, COC(C#CCCN(C)C)(c1ccccc1)c1ccccc1 14.8%, CCOC(=O)C1Cc2ccccc2C(=O)O1 (centres undefined) -4.22%, COCC1CCN(Cc2nc(-c3ccc(OC)cc3)no2)CC1 8.81%, O=C(NCCCn1ccnc1)C(=O)NCC1OCCN1S(=O)(=O)c1ccc(Br)cc1 (centres undefined) 5.76%

Potency, active:
COc1ccccc1C(=O)NCCn1cc(SCC(=O)NCC2CCCO2)c2ccccc21 (centres undefined) 18400 nM

Potency, inconclusive:
OCc1n[nH]c(CO)n1 29100 nM [falling, single point], O=C(Nc1ccccc1)C1CCCN1C(=O)Nc1ccccc1[N+](=O)[O-] (centres undefined) 517 nM [falling, full curve], Cc1nc(N2CCN(c3ccccc3)CC2)[nH]c(=O)c1Cc1ccccc1 366 nM [falling, full curve], CCC1OC(c2ccc([N+](=O)[O-])cc2)=Nc2ccccc21 (centres undefined) 18400 nM [activator, partial curve], O=C(NCCCn1ccnc1)C1CC2CCC1C2 (centres undefined) 580 nM [falling, single point], CCCC(=O)Nc1ccc2c(c1)nc(CN1CCCC1)n2C 5800 nM [falling, full curve], CCOc1ccc(C(=O)Nc2cnn(Cc3ccc(Cl)c(Cl)c3)c2)cc1 23100 nM [falling, single point], COc1ccc(N2CC(C(=O)N3CCCC(C)C3)CC2=O)cc1 (centres undefined) 29100 nM [activator, single point], Cc1ccc(NC(=O)CN2C(=O)N/C(=C/c3cc(C)n(-c4cccc(C(=O)O)c4)c3C)C2=O)cc1 146 nM [activator, full curve], CCNC(=O)NC(=O)C(C)OC(=O)c1oc2ccc(OCC)cc2c1C (centres undefined) 517 nM [activator, single point], Cc1noc(/C=C/c2ccco2)c1S(=O)(=O)N1CCC(C(=O)NC(C)c2ccccc2)CC1 (centres undefined) 259 nM [falling, full curve, poor fit], COc1cc(-c2nnc(SCc3cc(=O)oc4cc(O)c(O)cc34)o2)cc(OC)c1OC 4.6 nM [activator, full curve, poor fit], Cc1cc(C)c2cc(CN(Cc3nnnn3C3CCCCC3)CC3CCCO3)c(=O)[nH]c2c1 (centres undefined) 820 nM [activator, full curve], COc1ccc(Cl)cc1NC(=O)C1CSC(c2ccncc2)=N1 (centres undefined) 326 nM [activator, full curve], COc1ccccc1OCc1nc(C#N)c(NCCCn2ccnc2)o1 29100 nM [activator, single point], CCOCCCn1c(SCC(=O)N(C)C2CCS(=O)(=O)C2)nc2ccccc2c1=O (centres undefined) 6510 nM [rising, single point], Cc1onc(-c2ccccc2Cl)c1C(=O)OCC(=O)c1ccccc1 29100 nM [falling, single point], O=C(NC1CCCc2ccccc21)C1CCC(CNS(=O)(=O)c2cccc3nsnc23)CC1 (centres undefined) 20600 nM [activator, single point], CN1CCN(S(=O)(=O)c2ccc3ccccc3c2)CC1 820 nM [falling, full curve, poor fit], CCOC(=O)c1c(N2C(=O)C3C4C=CC(O4)C3C2=O)sc2c1CCCC2 (centres undefined) 164 nM [falling, full curve, poor fit], COc1ccc(Cl)cc1NC(=O)C1CCN(C(=O)C2CC(=O)N(c3ccc(C)cc3)C2)CC1 (centres undefined) 580 nM [activator, single point], CCOc1cc(C2C3=C(CCCC3=O)NC3=C2C(=O)CCC3)cc(Cl)c1O 29100 nM [falling, single point], CC(OC(=O)CN(C)S(=O)(=O)c1ccc(Cl)cc1)C(=O)Nc1cccc(Cl)c1 (centres undefined) 1300 nM [falling, full curve], C=CCN1C(=O)CN=C1Nc1ccccc1 1300 nM [activator, partial curve]
